{
  "source": "patent US7169564B1",
  "about": "“FKBP51/52 and CyP40-mediated mammalian hair growth” (Anaderm Research Corporation, priority 2001, dated 2007)",
  "key": {"[1]": {"tested_on": "thyroid hormone receptor", "assay": "Thyroid hormone receptor (TR) mediated transcription, TRE-TK luciferase reporter in HeLa/TRE cells", "type": "cell-based", "settings": "20 pM-20 nM, 16 hours, FIG. 4"}, "[2]": {"tested_on": "hair growth", "settings": "topical application; experimental animals such as mice and rats; cited from earlier work"}, "[3]": {"tested_on": "HNF3β mRNA in skin keratinocytes", "assay": "Induction of HNF3β mRNA, real time PCR", "type": "cell-based, human", "settings": "1 uM, RNA harvested at days 2 and 4, FIG. 3B"}, "[4]": {"tested_on": "BMP4 mRNA in primary human dermal fibroblasts", "assay": "Induction of BMP4 mRNA, real time PCR", "type": "cell-based", "settings": "1 uM, RNA harvested at days 2 and 4, FIG. 3A"}},
  "note": "At least one compound was matched to its structure with a doubt left.",
  "data": [
    {"smiles": "C=CC[C@@H]1/C=C(\\C)C[C@H](C)C[C@H](OC)[C@H]2O[C@@](O)(C(=O)C(=O)N3CCCC[C@H]3C(=O)O[C@H](/C(C)=C/[C@@H]3CC[C@@H](O)[C@H](OC)C3)[C@H](C)[C@@H](O)CC1=O)[C@H](C)C[C@@H]2OC", "note": "[FK506]", "values": [
      {"measurement": "thyroid hormone receptor mediated transcription (luciferase reporter activity)", "setting": "[1]", "result": "induces thyroid hormone receptor mediated transcription in a dose dependent manner"},
      {"measurement": "hair growth", "setting": "[2]", "result": "stimulate hair growth in a dose dependent manner"},
      {"measurement": "HNF3β mRNA level", "setting": "[3]", "result": "up-regulate"},
      {"measurement": "BMP4 mRNA level", "setting": "[4]", "result": "up-regulate"}
    ]}
  ]
}
